These are yes or no findings as the source states them, for the method shown. Some entries that bind do so weakly or less than the wild type.
Target: dopamine D2 receptor (rat striatum) (rat (endogenous in striatum)) (UniProt P61169)
Assay: SDS-PAGE and Western blot of dimer and monomer bands; rat striatum, rat striatal slices, cultured rat striatal neurons or transfected HEK293T cells homogenized in RIPA buffer, 50 μg boiled 5 min in SDS sample buffer, blotted with polyclonal anti-D2; with or without amphetamine, haloperidol, quinpirole, dopamine, TAT peptides

Amino acid sequences for entries named in this document (tags omitted).
UniProt P61169: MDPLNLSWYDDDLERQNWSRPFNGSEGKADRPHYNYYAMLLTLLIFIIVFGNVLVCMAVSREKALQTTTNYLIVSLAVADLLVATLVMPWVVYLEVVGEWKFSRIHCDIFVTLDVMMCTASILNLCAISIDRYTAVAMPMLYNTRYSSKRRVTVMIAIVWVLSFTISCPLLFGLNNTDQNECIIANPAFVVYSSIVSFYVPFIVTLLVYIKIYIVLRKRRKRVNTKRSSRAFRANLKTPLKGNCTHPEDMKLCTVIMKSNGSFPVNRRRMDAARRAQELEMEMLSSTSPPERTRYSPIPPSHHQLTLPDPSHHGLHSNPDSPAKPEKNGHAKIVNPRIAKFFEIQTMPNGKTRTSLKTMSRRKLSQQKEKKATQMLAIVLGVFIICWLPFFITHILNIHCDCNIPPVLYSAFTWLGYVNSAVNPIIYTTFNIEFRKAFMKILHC

binding: binds
Substance: dopamine D2 receptor (rat striatum) (from UniProt P61169 1-444)

From paper PMC2942879
